# Measurements taken from PubChem BioAssay AID493014 (National Center for Advancing Translational Sciences (NCATS), 2011).
# Screen size: about 340,000 compounds; about 170 (0.05%) were called active. Inconclusive results, whose numbers are uncertain, are shown with a selection of clear calls. Calls follow the shape of the dose curve; as a rule, active = well fitted inhibition curve with a large enough effect in the signal ratio, with a control signal flat (not every such curve was filed as active); inconclusive = small, poorly fitted or top-dose-only effect, or effect the other way, or a change in a side signal; inactive = flat fitted curve, though single readings scatter; the % refers to the signal ratio. Where the call is inconclusive, the potency comes from a doubtful curve fit.
# Experiment: qHTS Assay to Find Inhibitors of Chronic Active B-Cell Receptor Signaling;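 as to activity change, negative = inhibition: plate controls were basal doxycycline-induced cells for no effect and cells given 10 µM MG132 for full effect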
# Details: ABC-DLBCL IkBa-CBG/CBR reporter, luminescence ratio (green luciferase fused to IkBa over red control in TMD8 lymphoma cells), 4 h; activity change, negative = inhibition: at 46.1 µM (top of the series) unless noted
# Outline: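 TMD8 ABC-DLBCL cells carrying doxycycline-inducible green luciferase fused to IkappaBalpha plus unfused red luciferase were exposed to compounds (up to 46 uM) for 4 hrs at 37C. Activity came from the overlap-corrected green/red luminescence ratio.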
# Potency is read from the fitted curve at half-maximal effect.
SMILES,"activity change, negative = inhibition",Potency
Cc1ccc(Cl)cc1NC(=O)NCCN1CCCCC1,inactive,–
O=C(Nc1nnc(-c2ccccc2Cl)o1)c1ccco1,–,"inconclusive: 20.6 µM [falling, partial curve]"
COc1ccc(F)cc1CN1CCN(c2ncnc3scc(-c4ccccc4)c23)CC1,inactive,–
CCOC(=O)CSC1=Nc2ccccc2C2=NC(CCC(=O)NCc3ccc(OC)cc3)C(=O)N12 (configuration not stated),inactive,–
Cc1cccc(CC(=O)NCCn2c(C)cc3ccccc32)c1,inactive,–
Cc1cc(C)cc(C(=O)NCCCc2ccccc2)c1,inconclusive: 6.43%,–
Oc1c(C(c2ccccc2F)N2CCN(c3ccccc3F)CC2)sc2nc(-c3ccco3)nn12 (configuration not stated),inactive,–
COC(=O)c1cc2oc(C)cc2n1CC(=O)N(C)c1ccccc1,inconclusive: 7.44%,–
CN(c1ccccc1)S(=O)(=O)c1ccc2[nH]c(=O)oc2c1,inconclusive: 1.41%,–
CC(C)CN(C(=O)c1ccc([N+](=O)[O-])s1)c1c(N)n(Cc2ccccc2)c(=O)[nH]c1=O,inactive,–
COc1cc2[nH]c3c(=O)n4c(nc3c2cc1OC)SCCC4,inconclusive: 1.11%,–
CNc1nc(C23CC4CC(CC(C4)C2)C3)cs1,inactive,–
CCN(CC)S(=O)(=O)c1ccc(NC(=O)c2ccccc2N(C)S(C)(=O)=O)cc1,inactive,–
Cc1cccc(C(=O)NNC(=O)c2cccc([N+](=O)[O-])c2)c1,–,"inconclusive: 20 µM [falling, partial curve]"
CCc1nnc(NC(=O)C2Cc3ccccc3CN2S(=O)(=O)c2c(C)c(C)cc(C)c2C)s1 (configuration not stated),inconclusive: 10.6%,–
CCn1c(=O)cc(C(=O)OC)sc1=Nc1ccc(F)c(F)c1,inconclusive: -11.1%,–
O=C(O)Cc1sc(Nc2ccc(F)cc2)nc1-c1cccs1,–,"inconclusive: 35.5 µM [falling, single point]"
CCS(=O)(=O)c1c([N+](=O)[O-])ncn1C,inconclusive: 11.7%,–
COC(=O)c1sccc1NC(=O)c1ccc(C(C)C)cc1,inconclusive: 8.05%,–
CCCNCc1cc(Cl)c(OCC)c(Cl)c1,–,"inconclusive: 2.59 µM [rising, partial curve, poor fit]"
CCn1c(SCC(=O)Nc2ccc(Cl)cc2)nnc1C1CC1,inconclusive: -11.8%,–

SMILES,"activity change, negative = inhibition",Potency
COc1cccc(N2CCN(C(=O)c3c(C)nn(-c4ccccc4)c3C)CC2)c1,–,"inconclusive: 11.2 µM [falling, partial curve, poor fit]"
COC(=O)c1[nH]c2ccc(C)cc2c1NC(=O)NC1CCCCC1,–,"inconclusive: 0.146 µM [falling, full curve, poor fit]"
CCOc1cc(/C=N/n2c(C)nc3ccccc3c2=O)ccc1O,–,"inconclusive: 2 µM [falling, full curve, poor fit]"
CCCCCNc1nc(N2CCCC2)c2c(c1C#N)CCN(C)C2,inactive,–
COc1cc2c(cc1OC)C1O[C@](CCCCN3C(=O)c4ccccc4C3=O)(C2)OC2=C1C(=O)OC1(CCCCC1)C2,–,"inconclusive: 2.24 µM [activator, partial curve]"
Cc1cc(C)c(NC(=O)c2cn3c4c(c(N5CCN(C)CC5)c(F)cc4c2=O)OCC3C)c(C)c1 (configuration not stated),inconclusive: -3.66%,–
Clc1cccc(CN2CCSCC2)c1,inactive,–
Cc1cc(NC(=O)CSCC(=O)N(c2ccc(F)cc2)C(C(=O)NC2CCCCC2)c2ccc(O)c(O)c2)no1 (configuration not stated),–,"inconclusive: 20.6 µM [falling, partial curve]"
O=C(Nc1cccc(C(F)(F)F)c1)N1CCC(c2nc(-c3ccc(F)cc3)no2)CC1,inconclusive: -13%,–
Cc1ccccc1NC(=O)CSc1nc(-c2ccccc2)cn1-c1ccccc1F,inconclusive: 0.0521%,–
CCOC(=O)c1sc2nccc(N(C)C)c2c1N=CNOC,inconclusive: -23.8%,–
Cc1cc(C)c2nc(-c3ccccn3)cc(C(=O)NCc3cc(C)n(C)n3)c2c1,inactive,–
N=c1c2c3c(sc2nc2n1CCCCC2)CCCCC3,inconclusive: 0.376%,–
CCOc1ccc(S(=O)(=O)N2CCN(C(=O)c3ccco3)CC2)cc1,inconclusive: -1.38%,–
COc1ccccc1OCc1ccc(C(=O)Nc2ccc(Cl)cn2)o1,–,"inconclusive: 3.55 µM [falling, single point]"
Cc1cc(=O)n2[nH]c(-c3ccc(F)cc3)cc2n1,–,"inconclusive: 12.6 µM [falling, partial curve]"
CCOC(=O)c1c(NC(=O)c2nn(CC)cc2Br)sc(C)c1C,inconclusive: 5.85%,–
Cc1ccc(Cl)cc1Nc1nc(-c2sc(NC(=O)c3ccccc3)nc2C)cs1,inconclusive: -22.6%,–
COc1cccc(OCCSc2nc3ccccc3c(=O)[nH]2)c1,–,"inconclusive: 35.5 µM [falling, single point]"
Cc1cccc(C(=O)Nc2ccn(C)n2)c1,inactive,–
COC(=O)/C=C1\N/C(=N/c2nc(C)c3cc(OC)ccc3n2)NC1=O,inactive,–

SMILES,"activity change, negative = inhibition",Potency
Cn1ncc(Cl)c1C(=O)Nc1sc2c(c1C(N)=O)CCC2,–,"inconclusive: 4.61 µM [falling, partial curve, poor fit]"
O=c1cc(-c2c(O)c3ccccc3n(Cc3ccccc3)c2=O)[nH][nH]1,inconclusive: 3.31%,–
O=S(=O)(c1ccc(NC(=S)NCCC(c2ccccc2)c2ccccc2)cc1)N1CCOCC1,inactive,–
Cc1ccc(-c2nnn3c2nc(NCCc2ccc(S(N)(=O)=O)cc2)c2ccccc23)cc1,inconclusive: 0.985%,–
Cc1noc(/C=C/c2ccco2)c1S(=O)(=O)N1CCC(C(=O)Nc2ccc(Cl)cn2)CC1,inconclusive: 19.6%,–
COc1cccc(-n2nnnc2S(C)(=O)=O)c1,–,"inconclusive: 7.31 µM [rising, partial curve]"
O=C(Cc1ccccc1)Nc1ccc(NC(=S)NC(=O)c2ccccc2)cc1,inactive,–
COc1ccc(NC(=O)c2ccccc2Oc2ccccc2)cc1,inconclusive: 9.87%,–
O=C1C2=C(C(c3ccccc3)=NCCN2)C(c2cccc([N+](=O)[O-])c2)N1c1ccccc1 (configuration not stated),inconclusive: -1.68%,–
Cc1ccc(C)c(NC(=O)CNS(=O)(=O)c2ccccc2)c1,inconclusive: 18.2%,–
CCc1ccc2[nH]c(=O)c(CN(CCCN3CCOCC3)C(=O)Nc3ccccc3)cc2c1,inconclusive: 1.5%,–
COc1ccc(N(CCC#N)C(=O)/C(C#N)=C\c2cccs2)cc1,inconclusive: 1.61%,–
COc1ccc(Cl)cc1NC(=O)CN(C)C(=O)c1cn2ccccc2n1,inactive,–
COc1cc2c(cc1OC)CN(C(=O)c1ccc(N3CCCC3)c([N+](=O)[O-])c1)CC2,–,"inconclusive: 18.4 µM [falling, single point]"
CS(=O)(=O)N(CC(=O)N1CCc2ccccc2C1)Cc1ccc(Cl)cc1,inconclusive: 4.79%,–
CCOC(=O)C1CCCN(S(=O)(=O)c2cc(Br)cc3c2N(C(C)=O)CC3)C1 (configuration not stated),inconclusive: 10.7%,–
CCOc1ccccc1NC(=S)N1CCC(NC(=O)c2ccco2)CC1,inconclusive: -4.51%,–
O=C(NNC1=NCCC1)c1cccc(S(=O)(=O)N2CCCC2)c1,inactive,–
CNC(=S)N(CCc1c(C)[nH]c2ccc(F)cc12)Cc1ccco1,inconclusive: -6.33%,–
CN(c1nc(-c2ccccc2)cs1)C1CCS(=O)(=O)C1 (configuration not stated),inconclusive: 7.25%,–
CN(C)S(=O)(=O)c1ccc(Cl)c(NC(=O)COc2ccccc2[N+](=O)[O-])c1,inactive,–

SMILES,"activity change, negative = inhibition",Potency
S=C(N/N=C/c1ccco1)NC1CC2CCC1C2 (configuration not stated),inconclusive: -17.5%,–
CCCC(=O)NC(c1ccc(OC)cc1)c1c(O)ccc2ccccc12 (configuration not stated),inconclusive: -17.3%,–
CCc1nnc(NC(=O)c2cccs2)s1,–,"inconclusive: 29.1 µM [falling, single point]"
Cc1cc(-c2nnc(CCC(=O)NCC(C)c3ccccc3)o2)no1 (configuration not stated),inconclusive: 5.79%,–
O=[N+]([O-])c1ccc(N2CCCCC2)cc1SCCO,inactive,–
CCN1CCSc2ccc(C(=O)NCc3cc(Br)ccc3OC)cc21,inactive,–
CC(=O)Nc1c(S(=O)(=O)c2ccccc2)c2nc3ccccc3nc2n1Cc1ccccc1,inconclusive: 16.1%,–
CCOC(=O)c1cc(C)nc(S(C)(=O)=O)c1C#N,inconclusive: 29.1%,–
CC(=O)CCS(=O)(=O)c1ccc(C)c(C)c1,inconclusive: 18.2%,–
CN(C)c1ccc2c(c1)OC(N)=C(C#N)C2c1cccc(F)c1 (configuration not stated),–,"inconclusive: 0.447 µM [falling, full curve, poor fit]"
COc1ccc(OCCN2C(=O)c3ccccc3C2=O)c([N+](=O)[O-])c1,inconclusive: 1.03%,–
O=C(NCc1cccnc1)c1cc(Sc2cccc(Cl)c2)nc2ccccc12,inconclusive: 11.3%,–
O=C(Nc1ccc(Nc2ccccc2)cc1)c1ccc(F)cc1,inactive,–
Cn1c(=O)c2c(nc(CN3CCN(c4ccccc4)CC3)n2Cc2c(F)cccc2Cl)n(C)c1=O,inconclusive: -0.0724%,–
COc1ccc(NC(=O)CCS(=O)(=O)c2ccc3c(c2)oc(=O)n3C)cc1OC,inconclusive: 14.7%,–
CC1(C)N=C(SCC(=O)Nc2ccc(Cl)cc2)C(c2ccc(Cl)cc2)=N1,–,"inconclusive: 2.59 µM [rising, partial curve, poor fit]"
COc1ccc(NS(=O)(=O)c2cccc(-c3nnc(-c4ccccc4)o3)c2)cc1,–,"inconclusive: 23.1 µM [falling, single point]"
c1ccc2c(N3CCCCC3)nc(N3CCCCC3)nc2c1,inactive,–
CCC(=O)n1nc(NCc2ccc(OC)c(OC)c2)nc1NCc1ccc(OC)c(OC)c1,inconclusive: -17.8%,–

# Looked up one by one from the entries so far (six):
SMILES,"activity change, negative = inhibition",Potency
CCOC(=O)c1cc(C)nc(S(C)(=O)=O)c1C#N,inconclusive: 29.1%,–
CCN1CCSc2ccc(C(=O)NCc3cc(Br)ccc3OC)cc21,inactive,–
COc1ccc(OCCN2C(=O)c3ccccc3C2=O)c([N+](=O)[O-])c1,inconclusive: 1.03%,–
CCc1nnc(NC(=O)c2cccs2)s1,–,"inconclusive: 29.1 µM [falling, single point]"
CC1(C)N=C(SCC(=O)Nc2ccc(Cl)cc2)C(c2ccc(Cl)cc2)=N1,–,"inconclusive: 2.59 µM [rising, partial curve, poor fit]"
CCCC(=O)NC(c1ccc(OC)cc1)c1c(O)ccc2ccccc12 (configuration not stated),inconclusive: -17.3%,–
